From the supplement of paper PMC4604168 (melanoma cell lines)
The list shows a part of the results. Many values rest on one well or one pass, so single values are uncertain.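 Cells were imaged in 1,536-well plates, and nuclei stained with an antibody against cleaved PARP were counted against all DNA-stained nuclei to give the apoptosis fraction. Screening doses were chosen to leave most cells alive, and resting and induced cleaved-PARP levels differ strongly between cell lines.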

What was measured:
Test in all cases: cleaved PARP positive nuclei fraction relative to DMSO control; melanoma cells; higher = more apoptosis
Conditions in all cases: library dose: low library concentration; 72 h
WM115 = tested on: WM115
WM1716 = tested on: WM1716
WM1745 = tested on: WM1745
WM3526 = tested on: WM3526
WM3619 = tested on: WM3619
WM451Lu = tested on: WM451Lu

Structure (SMILES)	cleaved PARP positive nuclei fraction (WM115) [%]	cleaved PARP positive nuclei fraction (WM1716) [%]	cleaved PARP positive nuclei fraction (WM1745) [%]	cleaved PARP positive nuclei fraction (WM3526) [%]	cleaved PARP positive nuclei fraction (WM3619) [%]	cleaved PARP positive nuclei fraction (WM451Lu) [%]
N.N.[Cl][Pt][Cl] [cisplatin] + c1cc(-c2cnn3cc(-c4ccc(OCCN5CCCCC5)cc4)cnc23)ccn1 [Dorsomorphin] (first compound 1.6 µM, partner dose 0.4 µM)	149	59.8	388	81.8	92.5	67.2
C[C@]12O[C@H](C[C@]1(O)CO)n1c3ccccc3c3c4c(c5c6ccccc6n2c5c31)CNC4=O [Lestaurtinib] + NC1(c2ccc(-c3nc4ccn5c(=O)[nH]nc5c4cc3-c3ccccc3)cc2)CCC1 [MK2206] (first compound 0.004 µM, partner dose 0.4 µM)	242	510	130	64.4	115	88.9
COc1cc2ncnc(Nc3ccc(Oc4ccccc4)cc3)c2cc1OC + O=C(Oc1ccc([N+](=O)[O-])cc1)N1CCC(C(O)(c2ccc3c(c2)OCO3)c2ccc3c(c2)OCO3)CC1 [JZL184] (first compound 2 µM, partner dose 1 µM)	64.7	54.3	104	68.3	84.1	25.7
Cc1cc(SCc2sc(-c3ccc(C(F)(F)F)c(F)c3)nc2C)ccc1OCC(=O)O + O=C(Oc1ccc([N+](=O)[O-])cc1)N1CCC(C(O)(c2ccc3c(c2)OCO3)c2ccc3c(c2)OCO3)CC1 [JZL184] (first compound 2 µM, partner dose 1 µM)	142	98.2	106	69.4	165	88.2
Cc1cc(Nc2cc(N3CCN(C)CC3)nc(/C=C/c3ccccc3)n2)n[nH]1 + C/C(O)=C(\C#N)C(=O)Nc1cc(Br)ccc1Br [LFM-A13] (first compound 0.04 µM, partner dose 2 µM)	144	137	93.5	76.3	96.1	160
Cn1cc(C2=C(c3cn(C4CCN(Cc5ccccn5)CC4)c4ccccc34)C(=O)NC2=O)c2ccccc21 [Enzastaurin] + CN1CCN(c2ccc3nc(-c4c(N)c5c(F)cccc5[nH]c4=O)[nH]c3c2)CC1 [Dovitinib] (first compound 0.8 µM, partner dose 0.1 µM)	93.2	33.5	107	45.5	78.5	257
N.N.[Cl][Pt][Cl] [cisplatin] + O=C1NC(=O)/C(=C/c2ccc(-c3ccc(F)cc3O)o2)S1 [AS252424] (first compound 1.6 µM, partner dose 1 µM)	51.9	69.1	99.1	85.1	79.1	85
Cn1cc(C2=C(c3cn(C4CCN(Cc5ccccn5)CC4)c4ccccc34)C(=O)NC2=O)c2ccccc21 [Enzastaurin] + O=C(O)C(=O)Nc1sc2c(c1C(=O)O)CCNC2 [TCS401] (first compound 0.8 µM, partner dose 1.66667 µM)	307	486	108	109	87.1	59
Cn1cc(C2=C(c3cn(C4CCN(Cc5ccccn5)CC4)c4ccccc34)C(=O)NC2=O)c2ccccc21 [Enzastaurin] + CCN(CC)CCNC(=O)c1c(C)[nH]c(/C=C2\C(=O)Nc3ccc(F)cc32)c1C [sunitinib] (first compound 0.8 µM, partner dose 0.4 µM)	27.1	75	105	100	95.3	45.5
Cn1c(=O)n(-c2ccc(C(C)(C)C#N)cc2)c2c3cc(-c4cnc5ccccc5c4)ccc3ncc21 + N.N.[Cl][Pt][Cl] [cisplatin] (first compound 0.004 µM, partner dose 1.6 µM)	89.4	120	89.8	89	99.3	86.2
N.N.[Cl][Pt][Cl] [cisplatin] + C[As](C)SC[C@H](NC(=O)CC[C@H](N)C(=O)O)C(=O)NCC(=O)O [Darinaparsin] (first compound 1.6 µM, partner dose 0.4 µM)	94	70.7	94.5	42.2	74.4	40.9
CC(=O)O[C@@]12CO[C@@H]1C[C@H](O)[C@@]1(C)C(=O)[C@H](O)C3=C(C)[C@@H](OC(=O)[C@H](O)[C@@H](NC(=O)OC(C)(C)C)c4ccccc4)C[C@@](O)([C@@H](OC(=O)c4ccccc4)[C@H]21)C3(C)C [Docetaxel] + O=C(Oc1ccc([N+](=O)[O-])cc1)N1CCC(C(O)(c2ccc3c(c2)OCO3)c2ccc3c(c2)OCO3)CC1 [JZL184] (first compound 0.0001 µM, partner dose 1 µM)	577	421	188	86.9	177	72.7
COc1cc([C@@H]2c3cc4c(cc3[C@@H](O[C@@H]3O[C@@H]5CO[C@@H](C)O[C@H]5[C@H](O)[C@H]3O)[C@H]3COC(=O)[C@H]23)OCO4)cc(OC)c1O [etoposide] + Cn1cc(C2=C(c3cn(C4CCN(Cc5ccccn5)CC4)c4ccccc34)C(=O)NC2=O)c2ccccc21 [Enzastaurin] (first compound 0.02 µM, partner dose 0.8 µM)	80.2	78.9	52.7	40	177	65.9
N.N.[Cl][Pt][Cl] [cisplatin] + CCc1ccc(CCOc2ccc(CC3SC(=O)NC3=O)cc2)nc1 [pioglitazone] (first compound 1.6 µM, partner dose 2 µM)	202	195	89.3	92	91.3	40.5
C/C(O)=C(\C#N)C(=O)Nc1cc(Br)ccc1Br + Oc1nc(-c2ccc(C(F)(F)F)cc2)nc2c1CSCC2 [XAV939] (first compound 2 µM, partner dose 2 µM)	33.1	188	118	65.2	87.2	47.1
C[C@]12O[C@H](C[C@]1(O)CO)n1c3ccccc3c3c4c(c5c6ccccc6n2c5c31)CNC4=O [Lestaurtinib] + NC(=O)Nc1cc(-c2cccc(F)c2)sc1C(=O)N[C@H]1CCCNC1 [AZD7762] (first compound 0.004 µM, partner dose 0.02 µM)	142	192	110	168	166	40.8
OCCn1cc(-c2cnc3nnn(Cc4ccc5ncccc5c4)c3n2)cn1 + Cc1cc(SCc2sc(-c3ccc(C(F)(F)F)c(F)c3)nc2C)ccc1OCC(=O)O [GW0742] (first compound 1 µM, partner dose 2 µM)	29.4	74.7	93.5	113	87.2	76.9
Cn1cc(C2=C(c3cn(C4CCN(Cc5ccccn5)CC4)c4ccccc34)C(=O)NC2=O)c2ccccc21 [Enzastaurin] + C#Cc1cccc(Nc2ncnc3cc(OCCOC)c(OCCOC)cc23)c1 [erlotinib] (first compound 0.8 µM, partner dose 0.8 µM)	80.6	18.7	122	117	82.4	40.8
Clc1ccc(Nc2nnc(Cc3ccncc3)c3ccccc23)cc1 [vatalanib] + C/C(O)=C(\C#N)C(=O)Nc1cc(Br)ccc1Br [LFM-A13] (first compound 2 µM, partner dose 2 µM)	171	59.3	107	59.7	91.9	55
Nc1ccn([C@@H]2O[C@H](CO)[C@@H](O)C2(F)F)c(=O)n1 [gemcitabine] + C[As](C)SC[C@H](NC(=O)CC[C@H](N)C(=O)O)C(=O)NCC(=O)O [Darinaparsin] (first compound 0.0004 µM, partner dose 0.4 µM)	52.4	110	137	28	125	61
N.N.[Cl][Pt][Cl] [cisplatin] + COCC[n+]1c2c(n(Cc3cnccn3)c1C)C(=O)c1ccccc1C2=O [YM155] (first compound 1.6 µM, partner dose 0.0004 µM)	51.5	69.2	97.1	36.5	68.2	81.6
Cc1cn(-c2cc(NC(=O)c3ccc(C)c(Nc4nccc(-c5cccnc5)n4)c3)cc(C(F)(F)F)c2)cn1 [nilotinib] + C[As](C)SC[C@H](NC(=O)CC[C@H](N)C(=O)O)C(=O)NCC(=O)O [Darinaparsin] (first compound 0.2 µM, partner dose 0.4 µM)	71	33.8	108	46.1	112	118
N#CC[C@H](C1CCCC1)n1cc(-c2ncnc3[nH]ccc23)cn1 [ruxolitinib] + Cc1cc(SCc2sc(-c3ccc(C(F)(F)F)c(F)c3)nc2C)ccc1OCC(=O)O [GW0742] (first compound 1 µM, partner dose 2 µM)	67.1	425	86.8	41	101	64.3
COc1ccc2c(c1)CCC1C2CCC2(C)C(NCCCCCCN3C(=O)C=CC3=O)CCC12 (centres undefined) + C/C(O)=C(\C#N)C(=O)Nc1cc(Br)ccc1Br [LFM-A13] (first compound 0.4 µM, partner dose 2 µM)	94.3	88.4	114	78.1	99.4	394

For convenience, part of the list above.
Structure (SMILES)	cleaved PARP positive nuclei fraction (WM115) [%]	cleaved PARP positive nuclei fraction (WM1716) [%]	cleaved PARP positive nuclei fraction (WM1745) [%]	cleaved PARP positive nuclei fraction (WM3526) [%]	cleaved PARP positive nuclei fraction (WM3619) [%]	cleaved PARP positive nuclei fraction (WM451Lu) [%]
N.N.[Cl][Pt][Cl] [cisplatin] + COCC[n+]1c2c(n(Cc3cnccn3)c1C)C(=O)c1ccccc1C2=O [YM155] (first compound 1.6 µM, partner dose 0.0004 µM)	51.5	69.2	97.1	36.5	68.2	81.6
Cc1cn(-c2cc(NC(=O)c3ccc(C)c(Nc4nccc(-c5cccnc5)n4)c3)cc(C(F)(F)F)c2)cn1 [nilotinib] + C[As](C)SC[C@H](NC(=O)CC[C@H](N)C(=O)O)C(=O)NCC(=O)O [Darinaparsin] (first compound 0.2 µM, partner dose 0.4 µM)	71	33.8	108	46.1	112	118
